Article PMC9973269
No constants are given. Whether binding was seen depends on the method and setting. Binding seen in cells or lysates may run through a third protein. Binding can be weak; no strength is given. Where a sequence is shown, tags or fusion partners need not be part of it.

Biological target: T1, GST-ScaA (passenger domain of ScaA, ScaA_(30-1000), Boryong genotype) (Orientia tsutsugamushi (Boryong genotype))
T1 sequence: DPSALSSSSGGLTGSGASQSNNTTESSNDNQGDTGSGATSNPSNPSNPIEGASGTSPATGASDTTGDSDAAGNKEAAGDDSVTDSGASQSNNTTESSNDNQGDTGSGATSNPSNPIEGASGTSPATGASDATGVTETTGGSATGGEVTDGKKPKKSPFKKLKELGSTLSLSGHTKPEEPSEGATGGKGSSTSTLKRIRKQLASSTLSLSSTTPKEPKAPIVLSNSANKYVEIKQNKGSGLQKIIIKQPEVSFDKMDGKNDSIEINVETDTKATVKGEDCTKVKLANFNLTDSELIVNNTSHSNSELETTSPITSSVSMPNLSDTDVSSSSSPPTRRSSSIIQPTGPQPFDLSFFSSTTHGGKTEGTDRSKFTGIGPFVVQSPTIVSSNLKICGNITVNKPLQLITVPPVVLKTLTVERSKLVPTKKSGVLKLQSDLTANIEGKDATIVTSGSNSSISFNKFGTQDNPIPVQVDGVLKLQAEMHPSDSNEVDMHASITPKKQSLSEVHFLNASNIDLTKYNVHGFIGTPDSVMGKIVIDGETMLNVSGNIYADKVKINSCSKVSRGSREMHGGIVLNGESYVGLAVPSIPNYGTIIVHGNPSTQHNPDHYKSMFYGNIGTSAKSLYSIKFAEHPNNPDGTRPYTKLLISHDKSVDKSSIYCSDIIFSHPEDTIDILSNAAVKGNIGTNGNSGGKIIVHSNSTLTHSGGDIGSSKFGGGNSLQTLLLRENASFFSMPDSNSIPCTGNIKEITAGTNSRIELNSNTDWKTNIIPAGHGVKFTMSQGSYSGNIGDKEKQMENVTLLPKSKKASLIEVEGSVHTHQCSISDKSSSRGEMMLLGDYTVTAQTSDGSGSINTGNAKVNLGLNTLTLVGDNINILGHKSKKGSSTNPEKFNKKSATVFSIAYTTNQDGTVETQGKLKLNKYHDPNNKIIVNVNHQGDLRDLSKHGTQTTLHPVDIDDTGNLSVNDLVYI
Test: pull-down; GST fusion proteins bound to glutathione beads, incubated with lysate (NP-40 buffer) of cells transfected with full-length or truncated vMLL5 at 4°C for 4 h; washed four times with 20 mM HEPES pH 7.4, 100 mM NaCl, 1% NP-40; immunoblot with anti-HA; only the target purified

Substance | binding
vMLL5.N (N-terminal counterpart of vMLL5.C), HA tagged (human) (domain or fragment) | no binding
SET domain of vMLL5, HA tagged (human) (domain or fragment) | binds
